These results are taken from publication PMC4203353.

By UniProt entry, the sequences of proteins in these tests, tags left out.
UniProt Q80UE6: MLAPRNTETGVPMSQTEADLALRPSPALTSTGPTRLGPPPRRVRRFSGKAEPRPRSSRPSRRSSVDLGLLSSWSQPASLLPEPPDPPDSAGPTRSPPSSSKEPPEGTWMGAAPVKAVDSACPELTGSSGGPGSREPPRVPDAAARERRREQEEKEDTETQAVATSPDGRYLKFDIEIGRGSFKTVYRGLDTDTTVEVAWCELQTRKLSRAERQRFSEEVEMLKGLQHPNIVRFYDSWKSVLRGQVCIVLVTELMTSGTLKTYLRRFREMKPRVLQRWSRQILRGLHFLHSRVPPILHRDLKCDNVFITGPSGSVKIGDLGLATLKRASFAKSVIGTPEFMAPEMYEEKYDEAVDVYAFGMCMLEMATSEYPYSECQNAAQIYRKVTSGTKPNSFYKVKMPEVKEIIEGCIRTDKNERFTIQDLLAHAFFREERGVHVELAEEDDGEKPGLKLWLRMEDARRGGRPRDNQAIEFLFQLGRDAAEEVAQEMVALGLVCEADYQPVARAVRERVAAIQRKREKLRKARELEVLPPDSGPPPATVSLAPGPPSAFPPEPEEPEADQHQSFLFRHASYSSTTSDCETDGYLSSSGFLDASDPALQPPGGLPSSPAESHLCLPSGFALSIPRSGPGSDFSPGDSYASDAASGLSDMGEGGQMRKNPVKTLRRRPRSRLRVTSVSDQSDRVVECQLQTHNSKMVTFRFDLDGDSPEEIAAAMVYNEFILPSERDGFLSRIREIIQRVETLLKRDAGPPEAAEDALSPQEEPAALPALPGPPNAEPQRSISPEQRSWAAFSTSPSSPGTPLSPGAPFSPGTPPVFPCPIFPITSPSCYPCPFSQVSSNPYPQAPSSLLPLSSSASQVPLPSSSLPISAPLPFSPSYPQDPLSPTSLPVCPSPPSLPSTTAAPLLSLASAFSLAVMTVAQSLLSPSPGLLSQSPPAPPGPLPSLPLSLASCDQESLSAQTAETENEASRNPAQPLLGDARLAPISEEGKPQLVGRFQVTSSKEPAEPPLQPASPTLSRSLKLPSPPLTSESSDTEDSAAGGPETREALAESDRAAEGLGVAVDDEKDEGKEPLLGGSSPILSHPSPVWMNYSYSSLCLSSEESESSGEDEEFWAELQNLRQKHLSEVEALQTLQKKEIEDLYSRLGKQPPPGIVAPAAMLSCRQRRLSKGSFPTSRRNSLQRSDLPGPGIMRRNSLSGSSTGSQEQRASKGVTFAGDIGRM

These are yes or no findings as the source states them, for the method shown. In cells and extracts the contact can be indirect. Some results given as binding are weak or reduced against the parent protein; the word gives no strength.

The target in the experiment is with-no lysine kinase-4 (WNK4) (mouse (endogenous in kidney cortex)) (UniProt Q80UE6). The experiment is described as follows: co-IP; kidney cortex homogenate (1 mg protein) of 3-month-old wild-type mice treated for 5 days with vehicle or rFGF23; reciprocal IP with anti-WNK4 or anti-NCC antibody at 4°C overnight, Protein A or G beads, four washes in PBS; Western blot with anti-NCC or anti-WNK4. For orientation: A western blot detects proteins with antibodies after separation by electrophoresis.

B1: Na+:Cl- co-transporter NCC (protein, UniProt P59158 1-1002)
chain: MAELPVTELPGDALCSGRFTISTLMGGDEPPPAACDSSQPSHLTHGSTLYMRTFGYNTIDVVPAYEHYANSALPGEPRKVRPTLADLHSFLKQEGSHLHALAFDGRQGRELTDGLVEDETGTNSEKSPGEPVRFGWVKGVMIRCMLNIWGVILYLRLPWITAQAGIVLTWLIILLSVMVTSITGLSISAISTNGKVKSGGTYFLISRSLGPELGGSIGLIFAFANAVGVAMHTVGFAETVRDLLQEYGTPIVDPINDIRIIGVVTVTVLLAISLAGMEWESKAQVLFFLVIMVSFANYLVGTLIPASEDKASKGFYSYHGDIFVQNLVPDWRGIDGSFFGMFSIFFPSATGILAGANISGDLKDPAVAIPKGTLMAIFWTTISYLAISATIGSCVVRDASGDVNDTMTPGPGPCEGLACGYGWNFTECSQQRSCRYGLINYYQTMSMVSAFAPLITAGIFGATLSSALACLVSAAKVFQCLCEDQLYPLIGFFGKGYGKNREPVRGYLLAYAIAVAFIIIAELNTIAPIISNFFLCSYALINFSCFHASITNSPGWRPSFRYYSKWAALFGAVISVVIMFLLTWWAALIAIGVVLFLLLYVIYKKPEVNWGSSVQAGSYNLALSYSVGLNEVEDHIKNYRPQCLVLTGPPNFRPALVDFVSTFTQNLSLMICGHVLIGPGKQRVPELRLIASGHTKWLNKRKIKAFYSDVIAEDLRSGVQILMQASGLGRMKPNILVVGFKRNWQSAHPATVEDYIGVLHDAFDFNYGVCVMRMREGLNVSEALQTHTTPEALIQEEQASTIFQSEQGKKTIDIYWLFDDGGLTLLIPYLLHRKKRWGKCKIRVFVGGQINRMDEERKAIISLLSKFRLGFHEVHVLPDINQKPQAEHTKRFEDMIAPFRLNDGFKDEATVTEMRRDCPWKISDEEINKNRIKSLRQVRLSEILLDYSRDAALIILTLPIGRKGKCPSSLYMAWLETLSQDLRPPVLLIRGNQENVLTFYCQ
Take B1: the binding entry is recorded as “binds”.
